Data as given in publication PMC8934662.
No constants are given. Whether binding was seen depends on the method and setting. In cells and extracts the contact can be indirect. Some results given as binding are weak or reduced against the parent protein; the word gives no strength. For some assays here: Sequences can lack the tags named with a protein.

By UniProt entry, the sequences of proteins in these tests, tags left out.
UniProt Q9D0L8: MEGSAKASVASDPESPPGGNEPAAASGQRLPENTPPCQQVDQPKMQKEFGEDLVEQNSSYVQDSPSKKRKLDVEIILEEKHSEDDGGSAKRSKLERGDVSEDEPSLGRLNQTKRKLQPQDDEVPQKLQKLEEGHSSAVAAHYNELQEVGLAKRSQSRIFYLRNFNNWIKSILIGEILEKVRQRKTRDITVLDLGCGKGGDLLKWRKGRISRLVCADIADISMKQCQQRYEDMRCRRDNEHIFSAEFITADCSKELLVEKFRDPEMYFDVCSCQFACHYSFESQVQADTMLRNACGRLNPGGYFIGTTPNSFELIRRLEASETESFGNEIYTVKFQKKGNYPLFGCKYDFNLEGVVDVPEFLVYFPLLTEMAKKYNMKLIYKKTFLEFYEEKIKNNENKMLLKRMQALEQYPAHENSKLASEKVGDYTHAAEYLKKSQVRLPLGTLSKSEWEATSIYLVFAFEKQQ
UniProt Q9CQY2: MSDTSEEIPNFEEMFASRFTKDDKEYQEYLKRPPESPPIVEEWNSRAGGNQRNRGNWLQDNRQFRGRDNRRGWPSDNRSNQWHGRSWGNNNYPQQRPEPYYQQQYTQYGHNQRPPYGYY
UniProt O35286: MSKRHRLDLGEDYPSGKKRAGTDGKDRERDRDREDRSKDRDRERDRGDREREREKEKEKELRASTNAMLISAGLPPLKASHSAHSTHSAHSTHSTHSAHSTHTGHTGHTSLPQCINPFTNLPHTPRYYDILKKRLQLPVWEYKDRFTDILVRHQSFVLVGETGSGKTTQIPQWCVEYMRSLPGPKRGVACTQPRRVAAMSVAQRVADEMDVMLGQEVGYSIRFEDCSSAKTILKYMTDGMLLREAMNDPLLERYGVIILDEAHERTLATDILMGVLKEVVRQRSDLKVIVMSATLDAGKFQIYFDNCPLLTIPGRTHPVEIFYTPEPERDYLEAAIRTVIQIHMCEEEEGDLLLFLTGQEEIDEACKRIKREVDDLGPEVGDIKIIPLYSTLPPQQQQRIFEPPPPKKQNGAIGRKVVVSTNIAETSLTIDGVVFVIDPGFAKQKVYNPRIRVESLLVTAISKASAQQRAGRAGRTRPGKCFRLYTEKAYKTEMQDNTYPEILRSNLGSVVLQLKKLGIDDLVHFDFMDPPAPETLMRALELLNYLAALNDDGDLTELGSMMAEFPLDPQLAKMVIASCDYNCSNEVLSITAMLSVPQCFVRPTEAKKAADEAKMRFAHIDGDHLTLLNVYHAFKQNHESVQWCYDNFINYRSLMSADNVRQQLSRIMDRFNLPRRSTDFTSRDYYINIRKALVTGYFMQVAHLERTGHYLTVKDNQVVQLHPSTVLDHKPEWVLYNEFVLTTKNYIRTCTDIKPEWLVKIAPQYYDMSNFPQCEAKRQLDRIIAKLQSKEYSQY

Experiments:
[1] = biological target: HA-GFP-RNMT (mouse (endogenous gene in murine ESCs)) (UniProt Q9D0L8); assay: co-IP; immunoprecipitation from lysates of HA-GFP knock-in murine ESCs, western blot; the methods describe IP with anti-RNMT or anti-CMTR1 antibody and protein G Dynabeads, and IP with anti-HA magnetic beads; which was used here is not told
[2] = biological target: T1, HA-GFP-CMTR1 (mouse (endogenous gene in murine ESCs)) (UniProt Q9DBC3); assay: as above
T1 sequence: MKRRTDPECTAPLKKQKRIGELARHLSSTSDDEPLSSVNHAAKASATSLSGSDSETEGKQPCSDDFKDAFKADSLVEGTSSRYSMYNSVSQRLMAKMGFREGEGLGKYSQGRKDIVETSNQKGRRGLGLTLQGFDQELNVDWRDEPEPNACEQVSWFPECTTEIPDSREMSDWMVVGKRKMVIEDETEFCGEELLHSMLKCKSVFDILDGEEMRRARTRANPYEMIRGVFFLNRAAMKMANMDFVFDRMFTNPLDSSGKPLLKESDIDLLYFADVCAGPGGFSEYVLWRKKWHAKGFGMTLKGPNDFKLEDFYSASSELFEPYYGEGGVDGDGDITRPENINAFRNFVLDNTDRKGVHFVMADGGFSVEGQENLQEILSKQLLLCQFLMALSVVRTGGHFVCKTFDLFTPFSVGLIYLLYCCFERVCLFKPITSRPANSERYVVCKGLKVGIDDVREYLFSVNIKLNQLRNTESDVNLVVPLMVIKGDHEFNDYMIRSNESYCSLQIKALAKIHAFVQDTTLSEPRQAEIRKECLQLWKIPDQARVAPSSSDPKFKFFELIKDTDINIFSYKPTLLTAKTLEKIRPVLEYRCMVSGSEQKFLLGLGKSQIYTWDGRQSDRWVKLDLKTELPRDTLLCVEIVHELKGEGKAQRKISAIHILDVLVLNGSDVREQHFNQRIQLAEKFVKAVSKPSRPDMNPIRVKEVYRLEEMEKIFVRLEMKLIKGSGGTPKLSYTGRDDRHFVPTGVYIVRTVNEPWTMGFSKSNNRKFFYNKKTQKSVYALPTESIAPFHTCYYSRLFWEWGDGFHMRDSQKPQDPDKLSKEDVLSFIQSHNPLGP

Row | Substance | binding [1] | binding [2]
1 | RAM (from UniProt Q9CQY2 1-119) | binds | 
2 | DHX15 (from UniProt O35286 1-795) (enzyme) |  | binds weakly
